Record: PubChem BioAssay AID1259327 (Drosophila RNAi Screening Center, 2017)

Test: 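Data from controls in screens of zinc and manganese toxicity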
Cell system: Drosophila S2R+ cells
Knock-down reagent: long dsRNA against Drosophila genes
Duration: 5 days (water added on day 4, read one day later)
Treatment: water added as vehicle, no metal, one day before read-out
Measurement: 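Total ATP measured by luciferase light, scaled to plate mean, duplicates averaged, then z-scored across plates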
Direction: ATP z-score: higher = more total ATP than typical wells; ATP luminescence: higher = more total ATP
Call rule: 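Called active when the ATP z-score exceeds 1.5 or falls below -1.5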
Calls: active = hit: ATP up or down; inactive = no clear ATP change
The deposit covers about 3,100 reagents; this is a part drawn at random. In the full data, 378 (12%) were called active. 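Hits include both directions; z-score sign shows ATP rise or fall; raw luminescence values are not plate-normalised.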 A plus sign joins genes that one reagent is predicted to hit. Not given: the amount of reagent.

The opening 2 entries, to show the layout:
no.	gene	amplicon	ATP z-score, duplicate mean	ATP luminescence, replicate 1 (RLU)	ATP luminescence, replicate 2 (RLU)	Call
1	Mpv17 (Mitochondrial inner membrane protein MPV17)	DRSC17198	-1.23	6.43e5	6.87e5	inactive
2	Nup154 (Nucleoporin 154kD)	DRSC26396	-0.714	9.47e5	1.09e6	inactive

The listing, from the first entry:
no.	gene	amplicon	ATP z-score, duplicate mean	ATP luminescence, replicate 1 (RLU)	ATP luminescence, replicate 2 (RLU)	Call
1	Mpv17 (Mitochondrial inner membrane protein MPV17)	DRSC17198	-1.23	6.43e5	6.87e5	inactive
2	Nup154 (Nucleoporin 154kD)	DRSC26396	-0.714	9.47e5	1.09e6	inactive
3	Nup107 (Nucleoporin 107kD)	DRSC01999	-1.13	6.02e5	6.09e5	inactive
4	Zip88E (Zinc/iron regulated transporter-related protein 88E)	DRSC15562	-0.151	2.50e5	8.53e5	inactive
5	Zip88E (Zinc/iron regulated transporter-related protein 88E)	DRSC25826	-0.479	7.88e5	7.93e5	inactive
6	VhaM9.7-b (Vacuolar H[+] ATPase M9.7 subunit b)	DRSC11841	-0.5	8.36e5	8.25e5	inactive
7	rut (rutabaga)	DRSC22976	2.81	7.73e5	8.63e5	active
8	CG6901	DRSC16129	-0.519	2.80e5	6.95e5	inactive
9	CG6901	DRSC26477	1	8.17e5	9.40e5	inactive
10	boi	DRSC18425	-0.344	6.84e5	7.92e5	inactive
11	boi	DRSC25851	0.422	9.05e5	9.00e5	inactive
12	Scamp	DRSC20286	-0.447	6.99e5	6.51e5	inactive
13	Scamp	DRSC29752	0.346	9.45e5	7.91e5	inactive
14	Sugb (Sugar baby)	DRSC10815	0.208	7.40e5	7.67e5	inactive
15	Sugb (Sugar baby)	DRSC39654	0.614	5.14e5	5.00e5	inactive
16	CG34135 + CG11768	DRSC12702	0.0179	6.12e5	7.32e5	inactive
17	CG34135 + CG11768	DRSC38826	0.363	5.23e5	7.00e5	inactive
18	vir (virilizer)	DRSC04377	0.00715	7.61e5	6.94e5	inactive
19	vir (virilizer)	DRSC26525	-0.609	8.38e5	9.96e5	inactive
20	CG3397	DRSC15487	-0.708	6.51e5	6.14e5	inactive
21	CG3397	DRSC39547	2	5.48e5	6.57e5	active
22	Tsp33B (Tetraspanin 33B)	DRSC02418	0.704	8.26e5	7.76e5	inactive
23	Tsp33B (Tetraspanin 33B)	DRSC28982	0.366	9.93e5	7.52e5	inactive
24	alka (alkaliphile)	DRSC06136	-0.555	6.09e5	5.30e5	inactive
25	CG14778	DRSC17953	-0.262	5.23e5	6.02e5	inactive
26	CG14778	DRSC39900	-0.883	4.13e5	6.15e5	inactive
27	CG10081	DRSC05962	1.64	7.11e5	8.26e5	active
28	CG10081	DRSC24787	0.511	9.07e5	9.20e5	inactive
29	CG14605	DRSC12549	0.167	9.48e5	8.88e5	inactive
30	CG14605	DRSC29195	-0.0813	8.60e5	7.70e5	inactive
31	Toll-9	DRSC11776	-1.09	7.93e5	7.15e5	inactive
32	Sur (Sulfonylurea receptor)	DRSC03447	2.07	5.91e5	6.60e5	active
33	Sur (Sulfonylurea receptor)	DRSC27276	-0.278	7.62e5	8.64e5	inactive
34	Tmx3 (Thioredoxin-related transmembrane protein 3)	DRSC10471	-0.218	6.78e5	7.38e5	inactive
35	Tmx3 (Thioredoxin-related transmembrane protein 3)	DRSC39606	0.378	5.07e5	4.74e5	inactive
36	Afg3l2 (AFG3 like matrix AAA peptidase subunit 2)	DRSC10657	0.0188	7.65e5	7.00e5	inactive
37	Afg3l2 (AFG3 like matrix AAA peptidase subunit 2)	DRSC29981	0.193	5.18e5	6.75e5	inactive
38	Tsp96F (Tetraspanin 96F)	DRSC14147	-0.281	6.93e5	6.61e5	inactive
39	Tsp96F (Tetraspanin 96F)	DRSC39893	0.849	5.97e5	7.23e5	inactive
40	CG33639	DRSC22820	1.33	7.53e5	6.31e5	inactive
41	CG33639	DRSC23778	0.373	9.43e5	8.50e5	inactive
42	5-HT2A (5-hydroxytryptamine (serotonin) receptor 2A)	DRSC11990	0.932	8.32e5	8.30e5	inactive
43	5-HT2A (5-hydroxytryptamine (serotonin) receptor 2A)	DRSC39711	1.05	5.34e5	5.40e5	inactive
44	Inx5 (Innexin 5)	DRSC20051	0.0479	7.32e5	7.64e5	inactive
45	gb (genderblind)	DRSC15961	-0.118	6.55e5	7.30e5	inactive
46	gb (genderblind)	DRSC24834	0.427	9.08e5	8.98e5	inactive
